Experimental data as given in US20040115191A1.
These are yes or no findings as the source states them, for the method shown. Some entries that bind do so weakly or less than the wild type.

Assays:
IL-17D [1] = biological target: T1, IL-17D (UniProt Q8TAD2); assay: secretion trap technique
T1 sequence (iodinated in the BHK cell assay (residues not stated), looked up): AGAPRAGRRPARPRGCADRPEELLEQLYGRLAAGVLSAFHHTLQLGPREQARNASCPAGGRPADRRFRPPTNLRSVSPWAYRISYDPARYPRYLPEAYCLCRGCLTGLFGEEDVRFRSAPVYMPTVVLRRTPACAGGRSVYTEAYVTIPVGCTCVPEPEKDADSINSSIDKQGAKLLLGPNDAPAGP

IL-17D [2] = biological target: T1, IL-17D; assay: binding of iodinated IL-17D to BHK cells transfected with MSP-5 cDNA

binding (IL-17D [1]): binds
binding (IL-17D [2]): binds
B1: Membrane-Spanning Protein-5 (MSP-5) (receptor)
chain: EPHPHATIRGSHGGRKVPLVSPDSSRPARFLRHTGRSRGIERSTLEEPNLQPLQRRRSVPVLRLARPTEPPARSDINGAAVRPEQRPAARGSPREMIRDEGSSARSRMLRFPSGSSSPNILASFAGKNRVWVISAPHASEGYYRLMMSLLKDDVYCELAERHIQQIVLFHQAGEEGGKVRRITSEGQILEQPLDPSLIPKLMSFLKLEKGKFGMVLLKKTLQVEERYPYPVRLEAMYEVIDQGPIRRIEKIRQKGFVQKCKASGVEGQVVAEGNDGGGGAGRPSLGSEKKKEDPRRAQVPPTRESRVKVLRKLAATAPALPQPPSTPRATTLPPAPATTVTRSTSRAVTVAARPMTTTAFPTTQRPWTPSPSHRPPTTTEVITARRPSVSENLYPPSRKDQHRERPQTTRRPSKATSLESFTNAPPTTISEPSTRAAGPGRFRDNRMDRREHGHRDPNVVPGPPKPAKEKPPKKKAQDKILSNEYEEKYDLSRPTASQLEDELQVGNVPLKKAKESKKHEKLEKPEKEKKKKMKNENADKLLKSEKQMKKSEKKSKQEKEKSKKKKGGKTEQDGYQKPTNKHFTQSPKKSVADLLGSFEGKRRLLLITAPKAENNMYVQQRDEYLESFCKMATRKISVITIFGPVNNSTMKIDHFQLDNEKPMRVVDDEDLVDQRLISELRKEYGMTYNDFFMVLTDVDLRVKQYYEVPITMKSVFDLIDTFQSRIKDMEKQKKEGIVCKEDKKQSLENFLSRFRWRRRLLVISAPNDEDWAYSQQLSALSGQACNFGLRHITILKLLGVGEEVGGVLELFPINGSSVVEREDVPAHLVKDIRNYFQVSPEYFSMLLVGKDGNVKSWYPSPMWSMVIVYDLIDSMQLRRQEMAIQQSLGMRCPEDEYAGYGYHSYHQGYQDGYQDDYRHHESYHHGYPY
